33 targets from the supplement of paper PMC10849652 can be followed below.

Sequences of proteins named here, by UniProt entry; tags and fusion partners are left off. A change or cut given only in a name is not applied to a line headed by its entry.
UniProt O14737: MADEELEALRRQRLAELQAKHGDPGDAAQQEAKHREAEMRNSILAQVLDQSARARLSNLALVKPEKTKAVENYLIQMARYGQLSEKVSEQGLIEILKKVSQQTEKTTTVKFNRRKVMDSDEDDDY
UniProt Q9BPZ3: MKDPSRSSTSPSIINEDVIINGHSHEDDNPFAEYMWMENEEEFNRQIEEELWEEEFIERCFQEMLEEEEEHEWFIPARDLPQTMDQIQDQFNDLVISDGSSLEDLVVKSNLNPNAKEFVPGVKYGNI
UniProt O00330, whole entry, looked up: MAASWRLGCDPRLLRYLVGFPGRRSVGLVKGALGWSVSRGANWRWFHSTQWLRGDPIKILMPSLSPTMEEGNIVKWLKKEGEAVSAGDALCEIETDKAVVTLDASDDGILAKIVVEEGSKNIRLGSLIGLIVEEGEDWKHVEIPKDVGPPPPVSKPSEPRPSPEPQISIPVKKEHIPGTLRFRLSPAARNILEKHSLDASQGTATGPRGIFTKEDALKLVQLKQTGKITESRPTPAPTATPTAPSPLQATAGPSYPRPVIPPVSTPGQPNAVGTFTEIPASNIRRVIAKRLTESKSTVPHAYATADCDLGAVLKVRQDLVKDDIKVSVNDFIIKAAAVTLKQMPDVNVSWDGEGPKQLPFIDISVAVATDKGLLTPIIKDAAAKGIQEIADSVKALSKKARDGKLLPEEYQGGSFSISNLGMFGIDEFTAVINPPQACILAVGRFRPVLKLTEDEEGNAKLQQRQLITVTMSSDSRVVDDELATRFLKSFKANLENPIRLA
UniProt Q13177, whole entry, looked up: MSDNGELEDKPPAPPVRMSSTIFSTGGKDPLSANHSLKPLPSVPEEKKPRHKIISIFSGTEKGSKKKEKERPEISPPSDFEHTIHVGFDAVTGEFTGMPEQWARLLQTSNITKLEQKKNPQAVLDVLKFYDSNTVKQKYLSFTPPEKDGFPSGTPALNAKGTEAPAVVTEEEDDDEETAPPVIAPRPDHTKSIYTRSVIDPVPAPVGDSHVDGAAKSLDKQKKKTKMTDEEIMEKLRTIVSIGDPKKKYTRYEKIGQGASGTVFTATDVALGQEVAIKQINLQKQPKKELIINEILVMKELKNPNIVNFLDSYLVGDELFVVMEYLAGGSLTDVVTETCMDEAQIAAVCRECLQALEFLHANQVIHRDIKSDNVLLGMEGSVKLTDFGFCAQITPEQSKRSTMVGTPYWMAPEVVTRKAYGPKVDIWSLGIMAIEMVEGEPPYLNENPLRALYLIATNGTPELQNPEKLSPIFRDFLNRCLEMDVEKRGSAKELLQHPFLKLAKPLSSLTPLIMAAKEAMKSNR
UniProt Q8NBP7, whole entry, looked up: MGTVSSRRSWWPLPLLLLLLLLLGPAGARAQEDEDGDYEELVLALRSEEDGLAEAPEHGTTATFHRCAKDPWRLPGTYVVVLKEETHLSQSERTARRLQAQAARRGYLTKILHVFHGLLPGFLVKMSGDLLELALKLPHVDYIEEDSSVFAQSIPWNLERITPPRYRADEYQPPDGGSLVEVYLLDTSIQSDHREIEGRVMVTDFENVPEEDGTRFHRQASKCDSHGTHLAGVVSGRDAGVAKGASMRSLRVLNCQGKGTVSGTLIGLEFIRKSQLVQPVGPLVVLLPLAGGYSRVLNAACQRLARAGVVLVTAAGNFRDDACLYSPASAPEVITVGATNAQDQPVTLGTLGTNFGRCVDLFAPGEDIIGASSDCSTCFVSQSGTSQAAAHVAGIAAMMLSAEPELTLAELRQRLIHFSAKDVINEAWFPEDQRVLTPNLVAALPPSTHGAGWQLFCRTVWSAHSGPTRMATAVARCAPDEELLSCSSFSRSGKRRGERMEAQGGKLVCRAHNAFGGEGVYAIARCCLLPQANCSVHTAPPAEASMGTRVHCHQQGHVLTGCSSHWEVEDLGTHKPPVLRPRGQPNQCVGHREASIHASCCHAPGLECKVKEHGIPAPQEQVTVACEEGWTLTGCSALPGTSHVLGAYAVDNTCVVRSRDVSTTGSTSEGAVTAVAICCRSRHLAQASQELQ
UniProt O43252: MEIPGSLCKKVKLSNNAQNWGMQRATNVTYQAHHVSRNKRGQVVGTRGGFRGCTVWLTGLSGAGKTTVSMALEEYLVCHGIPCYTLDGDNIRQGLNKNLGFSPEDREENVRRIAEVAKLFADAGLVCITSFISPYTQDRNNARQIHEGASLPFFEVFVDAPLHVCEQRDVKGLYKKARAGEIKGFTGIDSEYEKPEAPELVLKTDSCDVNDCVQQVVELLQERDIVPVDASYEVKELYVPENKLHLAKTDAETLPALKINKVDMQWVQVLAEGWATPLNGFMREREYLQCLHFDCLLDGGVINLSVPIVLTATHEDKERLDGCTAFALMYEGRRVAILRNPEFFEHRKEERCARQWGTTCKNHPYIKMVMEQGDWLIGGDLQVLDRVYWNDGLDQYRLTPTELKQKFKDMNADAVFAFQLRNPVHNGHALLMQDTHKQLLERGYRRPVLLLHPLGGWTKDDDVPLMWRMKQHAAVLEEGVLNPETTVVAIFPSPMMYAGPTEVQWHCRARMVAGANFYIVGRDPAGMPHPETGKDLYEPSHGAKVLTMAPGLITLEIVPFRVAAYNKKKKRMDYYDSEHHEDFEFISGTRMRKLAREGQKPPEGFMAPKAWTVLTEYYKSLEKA
UniProt Q13310, whole entry, looked up: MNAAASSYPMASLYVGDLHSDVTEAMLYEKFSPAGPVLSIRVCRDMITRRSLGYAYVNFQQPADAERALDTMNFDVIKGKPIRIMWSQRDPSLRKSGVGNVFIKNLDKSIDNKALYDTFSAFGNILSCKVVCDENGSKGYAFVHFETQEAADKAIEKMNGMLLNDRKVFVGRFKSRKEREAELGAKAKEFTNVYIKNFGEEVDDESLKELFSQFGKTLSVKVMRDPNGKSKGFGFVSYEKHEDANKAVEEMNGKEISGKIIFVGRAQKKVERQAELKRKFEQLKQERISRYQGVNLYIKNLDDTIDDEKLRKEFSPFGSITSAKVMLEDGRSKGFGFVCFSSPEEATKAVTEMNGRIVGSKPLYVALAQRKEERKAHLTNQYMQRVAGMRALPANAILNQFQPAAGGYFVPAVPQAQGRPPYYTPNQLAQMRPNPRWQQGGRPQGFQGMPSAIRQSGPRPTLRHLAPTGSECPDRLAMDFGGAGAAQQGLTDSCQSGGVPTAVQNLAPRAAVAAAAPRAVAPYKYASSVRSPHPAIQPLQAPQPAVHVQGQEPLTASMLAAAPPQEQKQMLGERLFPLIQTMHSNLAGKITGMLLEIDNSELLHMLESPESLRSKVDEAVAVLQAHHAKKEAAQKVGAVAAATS
UniProt Q9H2J4: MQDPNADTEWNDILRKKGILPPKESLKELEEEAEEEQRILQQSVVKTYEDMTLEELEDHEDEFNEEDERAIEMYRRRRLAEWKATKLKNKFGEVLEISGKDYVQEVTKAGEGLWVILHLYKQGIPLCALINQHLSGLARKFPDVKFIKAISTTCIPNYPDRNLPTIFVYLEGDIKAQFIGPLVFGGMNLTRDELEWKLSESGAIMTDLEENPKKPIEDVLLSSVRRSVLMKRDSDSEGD
UniProt P12004, whole entry, looked up: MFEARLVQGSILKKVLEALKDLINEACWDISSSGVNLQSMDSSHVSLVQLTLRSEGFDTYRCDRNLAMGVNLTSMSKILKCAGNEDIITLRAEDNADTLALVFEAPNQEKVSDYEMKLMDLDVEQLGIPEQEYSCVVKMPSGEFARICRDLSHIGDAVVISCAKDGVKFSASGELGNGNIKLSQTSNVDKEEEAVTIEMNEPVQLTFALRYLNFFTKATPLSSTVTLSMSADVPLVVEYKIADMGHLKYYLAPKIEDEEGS
UniProt Q6P996: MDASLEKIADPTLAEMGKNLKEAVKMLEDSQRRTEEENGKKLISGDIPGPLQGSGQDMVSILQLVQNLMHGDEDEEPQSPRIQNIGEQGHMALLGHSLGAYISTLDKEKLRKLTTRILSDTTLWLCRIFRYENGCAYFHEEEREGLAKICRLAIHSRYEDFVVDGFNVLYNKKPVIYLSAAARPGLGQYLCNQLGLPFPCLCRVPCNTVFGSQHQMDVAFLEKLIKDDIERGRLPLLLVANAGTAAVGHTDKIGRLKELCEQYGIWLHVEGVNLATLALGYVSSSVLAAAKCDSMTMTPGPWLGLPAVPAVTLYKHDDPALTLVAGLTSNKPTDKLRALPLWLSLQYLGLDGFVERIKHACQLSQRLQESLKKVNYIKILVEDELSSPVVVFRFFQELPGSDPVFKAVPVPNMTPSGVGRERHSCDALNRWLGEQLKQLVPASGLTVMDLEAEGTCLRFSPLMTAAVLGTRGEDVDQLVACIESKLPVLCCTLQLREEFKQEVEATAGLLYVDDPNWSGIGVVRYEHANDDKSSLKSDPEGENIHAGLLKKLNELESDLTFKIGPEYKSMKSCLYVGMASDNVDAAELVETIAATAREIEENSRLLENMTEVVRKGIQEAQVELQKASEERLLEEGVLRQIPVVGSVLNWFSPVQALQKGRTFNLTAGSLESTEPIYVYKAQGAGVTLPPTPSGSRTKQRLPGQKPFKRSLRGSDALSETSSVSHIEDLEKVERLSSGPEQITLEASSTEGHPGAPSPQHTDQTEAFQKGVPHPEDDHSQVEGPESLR
UniProt P43034: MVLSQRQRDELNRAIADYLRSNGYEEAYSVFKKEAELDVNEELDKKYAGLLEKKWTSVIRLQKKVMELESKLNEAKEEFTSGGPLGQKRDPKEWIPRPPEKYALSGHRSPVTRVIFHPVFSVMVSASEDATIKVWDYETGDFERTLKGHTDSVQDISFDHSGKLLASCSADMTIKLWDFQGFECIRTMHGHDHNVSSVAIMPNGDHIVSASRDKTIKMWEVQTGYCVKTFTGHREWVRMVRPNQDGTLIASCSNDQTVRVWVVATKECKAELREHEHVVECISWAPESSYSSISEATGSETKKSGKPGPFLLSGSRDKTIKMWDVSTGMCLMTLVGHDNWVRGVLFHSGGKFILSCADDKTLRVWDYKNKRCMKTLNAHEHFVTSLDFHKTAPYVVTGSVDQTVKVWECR
UniProt O00623: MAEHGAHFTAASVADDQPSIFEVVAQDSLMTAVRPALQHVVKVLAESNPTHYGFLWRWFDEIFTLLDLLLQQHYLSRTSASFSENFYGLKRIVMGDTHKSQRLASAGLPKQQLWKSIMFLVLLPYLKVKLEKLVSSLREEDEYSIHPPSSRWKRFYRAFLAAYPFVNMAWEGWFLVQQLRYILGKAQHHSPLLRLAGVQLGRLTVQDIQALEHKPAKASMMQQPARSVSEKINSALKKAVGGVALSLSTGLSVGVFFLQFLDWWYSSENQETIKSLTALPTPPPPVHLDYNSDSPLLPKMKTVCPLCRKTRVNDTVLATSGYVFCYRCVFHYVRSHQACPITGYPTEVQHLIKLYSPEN
UniProt P61457: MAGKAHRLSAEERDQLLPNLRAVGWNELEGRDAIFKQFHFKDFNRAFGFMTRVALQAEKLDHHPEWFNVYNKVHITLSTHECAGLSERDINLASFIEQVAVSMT
UniProt Q14554: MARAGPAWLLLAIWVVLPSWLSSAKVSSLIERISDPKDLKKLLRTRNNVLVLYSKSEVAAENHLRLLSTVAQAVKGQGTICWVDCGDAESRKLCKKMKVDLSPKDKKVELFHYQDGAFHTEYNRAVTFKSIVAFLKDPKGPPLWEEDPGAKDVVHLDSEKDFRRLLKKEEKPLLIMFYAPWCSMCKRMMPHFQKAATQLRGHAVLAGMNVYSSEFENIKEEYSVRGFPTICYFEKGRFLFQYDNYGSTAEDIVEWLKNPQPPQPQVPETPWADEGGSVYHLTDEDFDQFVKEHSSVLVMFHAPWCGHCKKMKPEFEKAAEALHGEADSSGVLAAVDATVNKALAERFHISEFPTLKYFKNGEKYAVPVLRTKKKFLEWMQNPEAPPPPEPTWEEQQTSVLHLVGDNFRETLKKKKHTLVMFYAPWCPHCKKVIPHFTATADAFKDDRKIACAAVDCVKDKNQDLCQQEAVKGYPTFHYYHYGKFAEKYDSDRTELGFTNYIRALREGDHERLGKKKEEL
UniProt Q9BZ23: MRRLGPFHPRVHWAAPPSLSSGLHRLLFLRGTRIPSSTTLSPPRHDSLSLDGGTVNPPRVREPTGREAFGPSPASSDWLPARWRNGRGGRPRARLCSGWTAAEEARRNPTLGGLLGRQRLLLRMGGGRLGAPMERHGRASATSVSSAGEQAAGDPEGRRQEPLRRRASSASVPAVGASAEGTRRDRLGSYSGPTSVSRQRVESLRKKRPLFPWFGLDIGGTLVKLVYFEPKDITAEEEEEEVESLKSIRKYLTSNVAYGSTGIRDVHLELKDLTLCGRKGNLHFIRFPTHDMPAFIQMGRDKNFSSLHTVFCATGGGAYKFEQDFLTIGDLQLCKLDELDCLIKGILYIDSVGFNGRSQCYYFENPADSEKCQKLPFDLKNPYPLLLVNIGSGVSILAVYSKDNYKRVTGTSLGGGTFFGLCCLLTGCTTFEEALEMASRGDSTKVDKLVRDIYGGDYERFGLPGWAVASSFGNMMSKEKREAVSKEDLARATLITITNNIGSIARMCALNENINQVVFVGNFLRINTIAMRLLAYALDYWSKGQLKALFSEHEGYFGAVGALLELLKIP

The list shows a part of the results. Residues, ends and D or L forms follow the SMILES beside them. *: point of attachment. Cbz = O=C(OCc1ccccc1)*

Compound in the first assay: CC(C)(O)CC(=O)NCCn1ccc2ncnc(Nc3ccc(Oc4cccc(C(F)(F)F)c4)c(Cl)c3)c21
Description: log2 fold change, soluble protein after heating vs DMSO (PISA); higher = thermal stabilisation; K562 cells, 10 uM, 30 min; active = over 0.2 and 3.5 SD of the protein, either way, in both replicates (recomputed). A digest of the protocol:
(§1)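 Quantification of soluble protein used TMTpro 16plex LC-MS/MS, with channel sums equalised. Samples were the supernatant after 21,000xg for 90 min of pooled aliquots from K562 cells (2×10^6 cells/mL) treated with 10 μM compound for 30 min, heated for 3 min over 48°C-58°C, and extracted in PBS with 0.5% NP-40 at 4°C. Values, from duplicates, describe thermal stability against control samples on a log2 fold-change scale.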
Consider PCYOX1 (UniProt Q9UHG3), for which the log2 fold change was inactive: -0.002.
The same measure, in the same setting: the result for PDCL (UniProt Q13371) reads inactive: -0.148; that for PDCD5 (UniProt O14737), inactive: -0.024.
On the same count and under the same terms, the result for PAGR1 (UniProt Q9BTK6) reads inactive: -0.061.
As to PDCD11 (UniProt Q14690), the log2 fold change was inactive: -0.062.
In the case of PDSS1 (UniProt Q5T2R2), the log2 fold change was inactive: -0.138.
The same measure, in the same setting: the figure for PAK3 isoform 3 (UniProt O75914) is inactive: 0.025; for PAIP2 (UniProt Q9BPZ3) it is inactive: -0.043; for PDF (UniProt Q9HBH1) it is inactive: 0.016.
For PANX1 (UniProt Q96RD7), the log2 fold change is inactive: 0.021.
On to PDHX (UniProt O00330), for which the log2 fold change was inactive: 0.011.
On the same count and under the same terms, the result for PDHB (UniProt P11177) reads inactive: 0.005.
Consider PAK2 (UniProt Q13177), for which the log2 fold change was inactive: 0.016.
Consider PEX14 (UniProt O75381), for which the log2 fold change was inactive: -0.01.
The same measure, in the same setting: the result for PASK (UniProt Q96RG2) reads inactive: -0.097; that for PCSK9 (UniProt Q8NBP7), inactive: 0.032.
The same measure, in the same setting: the result for PAPSS1 (UniProt O43252) reads inactive: -0.03.
Same read-out and setting: the figure for PDIA4 (UniProt P13667) is inactive: -0.005; for PABPC4 isoform 3 (UniProt Q13310) it is inactive: 0.044; for PCBD2 (UniProt Q9H0N5) it is inactive: 0.
Take PDCL3 (UniProt Q9H2J4): the log2 fold change is inactive: -0.005.
Same read-out and setting: the figure for PDLIM4 (UniProt P50479) is inactive: -0.032; for PCNA (UniProt P12004) it is inactive: 0.022.
Still for that read-out and setting: the figure for PDXDC1 (UniProt Q6P996) is inactive: 0.024.
Still for that read-out and setting: the result for PAFAH1B1 (UniProt P43034) reads inactive: 0.008; that for PDZD8 (UniProt Q8NEN9), inactive: -0.039.
Consider PEX12 (UniProt O00623), for which the log2 fold change was inactive: 0.056.
The same measure, in the same setting: the result for PCBD1 (UniProt P61457) reads inactive: 0.08; that for PDIA5 (UniProt Q14554), inactive: 0.039.
For PDXK (UniProt O00764), the log2 fold change is inactive: -0.02.
As for PBLD (UniProt P30039), the log2 fold change was inactive: -0.033.
For the target PEX1 (UniProt O43933), the log2 fold change was inactive: 0.
The same measure, in the same setting: the figure for PANK2 (UniProt Q9BZ23) is inactive: 0.021.

Compound in a further assay: CC(C)C1=C2N=C(C=C(N2N=C1)NCC3=CC=CC=C3)NCCCCCCN
Described as above. A digest of the protocol:
as §1
For PCYOX1 (UniProt Q9UHG3), the log2 fold change is inactive: 0.123.
For PDCL (UniProt Q13371), the log2 fold change is inactive: -0.102.
Still for that read-out and setting: the figure for PDCD5 (UniProt O14737) is inactive: 0.03.
Still for that read-out and setting: the figure for PAGR1 (UniProt Q9BTK6) is inactive: 0.013.
As to PDCD11 (UniProt Q14690), the log2 fold change was inactive: -0.228.
As to PDSS1 (UniProt Q5T2R2), the log2 fold change was inactive: -0.002.
As to PAK3 isoform 3 (UniProt O75914), the log2 fold change was inactive: 0.027.
Same read-out and setting: the figure for PAIP2 (UniProt Q9BPZ3) is inactive: -0.012; for PDF (UniProt Q9HBH1) it is inactive: -0.207.
Same read-out and setting: the result for PANX1 (UniProt Q96RD7) reads inactive: 0.126; that for PDHX (UniProt O00330), inactive: -0.02.
For the target PDHB (UniProt P11177), the log2 fold change is inactive: -0.059.
Still for that read-out and setting: the result for PAK2 (UniProt Q13177) reads inactive: 0.056.
Still for that read-out and setting: the result for PEX14 (UniProt O75381) reads inactive: 0.044; that for PASK (UniProt Q96RG2), inactive: -0.083.
Same read-out and setting: the figure for PCSK9 (UniProt Q8NBP7) is inactive: 0.141.
As to PAPSS1 (UniProt O43252), the log2 fold change is inactive: 0.021.
Still for that read-out and setting: the figure for PDIA4 (UniProt P13667) is inactive: -0.025.
On the same count and under the same terms, the result for PABPC4 isoform 3 (UniProt Q13310) reads inactive: -0.028.
Still for that read-out and setting: the result for PCBD2 (UniProt Q9H0N5) reads inactive: -0.001.
For the target PDCL3 (UniProt Q9H2J4), the log2 fold change was inactive: 0.049.
On the same count and under the same terms, the figure for PDLIM4 (UniProt P50479) is inactive: 0.015.
As for PCNA (UniProt P12004), the log2 fold change is inactive: 0.039.
On the same count and under the same terms, the result for PDXDC1 (UniProt Q6P996) reads inactive: -0.028.
Still for that read-out and setting: the figure for PAFAH1B1 (UniProt P43034) is inactive: 0.053; for PDZD8 (UniProt Q8NEN9) it is inactive: -0.077; for PEX12 (UniProt O00623) it is inactive: -0.028.
Consider PCBD1 (UniProt P61457), for which the log2 fold change was inactive: 0.051.
On to PDIA5 (UniProt Q14554), for which the log2 fold change was inactive: -0.017.
On the same count and under the same terms, the figure for PDXK (UniProt O00764) is inactive: 0.076; for PBLD (UniProt P30039) it is inactive: -0.021; for PEX1 (UniProt O43933) it is inactive: -0.001.
The same measure, in the same setting: the result for PANK2 (UniProt Q9BZ23) reads inactive: -0.01.

Compound in a further assay: CC(C)C[C@@H](C=O)NC(=O)[C@H](CC(C)C)NC(=O)[C@H](CC(C)C)NC(=O)OCc1ccccc1
The assay is described as above. A digest of the protocol:
as §1
For the target PCYOX1 (UniProt Q9UHG3), the log2 fold change is inactive: -0.041.
Still for that read-out and setting: the result for PDCL (UniProt Q13371) reads inactive: -0.003; that for PDCD5 (UniProt O14737), inactive: -0.024.
Same read-out and setting: the figure for PAGR1 (UniProt Q9BTK6) is inactive: 0.272; for PDCD11 (UniProt Q14690) it is inactive: 0.101; for PDSS1 (UniProt Q5T2R2) it is inactive: -0.041.
With PAK3 isoform 3 (UniProt O75914), the log2 fold change was inactive: -0.083.
Take PAIP2 (UniProt Q9BPZ3): the log2 fold change is inactive: 0.128.
The same measure, in the same setting: the figure for PDF (UniProt Q9HBH1) is inactive: -0.002; for PANX1 (UniProt Q96RD7) it is inactive: 0.012; for PDHX (UniProt O00330) it is inactive: 0.053.
For the target PDHB (UniProt P11177), the log2 fold change was inactive: 0.038.
Same read-out and setting: the result for PAK2 (UniProt Q13177) reads inactive: -0.013.
Turning to PEX14 (UniProt O75381), the log2 fold change is inactive: -0.044.
The same measure, in the same setting: the figure for PASK (UniProt Q96RG2) is inactive: 0.006; for PCSK9 (UniProt Q8NBP7) it is inactive: -0.078; for PAPSS1 (UniProt O43252) it is inactive: 0.082.
Still for that read-out and setting: the figure for PDIA4 (UniProt P13667) is inactive: -0.009; for PABPC4 isoform 3 (UniProt Q13310) it is inactive: 0.02.
For PCBD2 (UniProt Q9H0N5), the log2 fold change is inactive: -0.046.
Same read-out and setting: the result for PDCL3 (UniProt Q9H2J4) reads inactive: -0.028; that for PDLIM4 (UniProt P50479), inactive: 0.009; that for PCNA (UniProt P12004), inactive: -0.038.
Same read-out and setting: the figure for PDXDC1 (UniProt Q6P996) is inactive: 0.279; for PAFAH1B1 (UniProt P43034) it is inactive: -0.048.
Same read-out and setting: the figure for PDZD8 (UniProt Q8NEN9) is inactive: 0.006.
Turning to PEX12 (UniProt O00623), the log2 fold change was inactive: 0.123.
For the target PCBD1 (UniProt P61457), the log2 fold change was inactive: -0.024.
On the same count and under the same terms, the figure for PDIA5 (UniProt Q14554) is inactive: 0.004.
Consider PDXK (UniProt O00764), for which the log2 fold change is inactive: -0.038.
The same measure, in the same setting: the result for PBLD (UniProt P30039) reads inactive: -0.027; that for PEX1 (UniProt O43933), inactive: -0.006.
Regarding PANK2 (UniProt Q9BZ23), the log2 fold change was inactive: -0.056.
